Results published in PubChem BioAssay AID493014 (National Center for Advancing Translational Sciences (NCATS), 2011).
Screen size: about 340,000 compounds; about 170 (0.05%) were called active. The shares of active, inactive and inconclusive entries below differ from those in the screen. Calls follow the shape of the dose curve; as a rule, active = well fitted inhibition curve with a large enough effect in the signal ratio, with a control signal flat (not every such curve was filed as active); inconclusive = small, poorly fitted or top-dose-only effect, or effect the other way, or a change in a side signal; inactive = flat fitted curve, though single readings scatter; the % refers to the signal ratio. A potency beside an inconclusive call is a rough fit, not a confirmed value.
Potency is read from the fitted curve at half-maximal effect.

Assay: qHTS Assay to Find Inhibitors of Chronic Active B-Cell Receptor Signaling;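 as to activity change, negative = inhibition: plate controls were basal doxycycline-induced cells for no effect and cells given 10 µM MG132 for full effect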
Conditions: ABC-DLBCL IkBa-CBG/CBR reporter, luminescence ratio (green luciferase fused to IkBa over red control in TMD8 lymphoma cells), 4 h; activity change, negative = inhibition: at 46.1 µM (top of the series)
How it was run: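 Compounds up to 46 uM were incubated four hours with TMD8 cells whose green CBG68 luciferase is fused to IkappaBalpha; red CBR luminescence normalised the signal, and concentration-effect curves were fitted to fusion, red and ratio data.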
For `COc1cc(/C=N/Nc2ccc(Cl)c(C(=O)O)c2)ccc1OC(=O)c1ccc(F)cc1`, the Potency was inconclusive: 3.98 µM [falling, full curve, poor fit].
With `COC(=O)c1sc(-c2ccc(C(C)(C)C)cc2)cc1NC(=O)COCC(=O)O` the Potency was inconclusive: 17.8 µM [falling, single point].
With `Cc1ccccc1N/N=C/c1sc(=O)n(Cc2cccc(C(=O)O)c2)c1Cl` the activity change, negative = inhibition was inconclusive: 1.16%.
